Source: publication PMC6397164
These are yes or no findings as the source states them, for the method shown. In cells and extracts the contact can be indirect. Some results given as binding are weak or reduced against the parent protein; the word gives no strength. Sequences can lack the tags named with a protein.

The chains behind the UniProt entries cited, without tags or fusion partners.
UniProt P06241: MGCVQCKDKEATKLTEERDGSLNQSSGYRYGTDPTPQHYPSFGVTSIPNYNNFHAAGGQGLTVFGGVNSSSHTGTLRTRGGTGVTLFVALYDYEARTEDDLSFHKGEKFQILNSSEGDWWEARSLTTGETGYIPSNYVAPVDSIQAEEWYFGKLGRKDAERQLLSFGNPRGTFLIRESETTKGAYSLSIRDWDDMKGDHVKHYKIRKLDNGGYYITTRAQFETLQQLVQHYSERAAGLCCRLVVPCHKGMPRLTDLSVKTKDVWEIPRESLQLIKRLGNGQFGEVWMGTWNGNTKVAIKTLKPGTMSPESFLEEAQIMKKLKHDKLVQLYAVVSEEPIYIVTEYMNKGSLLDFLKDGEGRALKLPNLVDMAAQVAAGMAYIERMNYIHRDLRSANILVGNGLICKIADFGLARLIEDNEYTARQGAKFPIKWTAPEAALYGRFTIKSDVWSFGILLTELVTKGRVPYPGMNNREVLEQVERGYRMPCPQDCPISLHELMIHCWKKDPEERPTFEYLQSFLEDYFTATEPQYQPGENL

Columns and labels:
[1] = biological target: T1, Flag-tagged 6-phosphogluconate dehydrogenase (Flag-6PGD) (human) (UniProt P52209); test: co-IP; U87/EGFR cells transiently co-transfected with HA-Fyn and Flag-6PGD, treated with or without EGF (100 ng/ml) for 30 min; immunoprecipitation and immunoblotting with the indicated antibodies
T1 sequence: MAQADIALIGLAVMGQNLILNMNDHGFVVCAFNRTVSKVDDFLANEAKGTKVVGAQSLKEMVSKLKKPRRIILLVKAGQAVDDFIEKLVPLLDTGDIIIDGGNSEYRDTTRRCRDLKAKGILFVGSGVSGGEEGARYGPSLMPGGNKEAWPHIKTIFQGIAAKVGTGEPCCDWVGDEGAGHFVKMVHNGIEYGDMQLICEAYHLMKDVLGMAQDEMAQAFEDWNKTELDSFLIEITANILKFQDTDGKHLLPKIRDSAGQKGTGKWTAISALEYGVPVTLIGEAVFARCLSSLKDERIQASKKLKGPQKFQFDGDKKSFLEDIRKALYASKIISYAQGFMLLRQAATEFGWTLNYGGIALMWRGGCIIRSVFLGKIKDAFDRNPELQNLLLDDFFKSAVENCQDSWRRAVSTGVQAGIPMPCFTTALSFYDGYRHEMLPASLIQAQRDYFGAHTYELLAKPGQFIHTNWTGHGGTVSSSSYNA

[2] = biological target: T1, Flag-tagged 6-phosphogluconate dehydrogenase (Flag-6PGD) (human); test: cross-linking; lysate of U87/EGFR cells transfected with Flag-6PGD, with or without EGF; glutaraldehyde 0.025%, room temperature, 15 min, stopped with Tris-HCl pH 7.5
[3] = biological target: T1, Flag-tagged 6-phosphogluconate dehydrogenase (Flag-6PGD) (human); test: co-IP; U87/EGFR cells co-transfected with Flag-6PGD and HA-6PGD, in the absence or presence of EGF; HA-6PGD precipitated by Flag-6PGD

For “epidermal growth factor receptor (EGFR) (from UniProt P00533 25-1210)”, which binding [1] is on record?
Its binding is “no binding”.

For “HA-Fyn (from UniProt P06241 1-537) (enzyme)”, which binding [1] is on record?
The binding was “binds”.

B1: Flag-tagged 6-phosphogluconate dehydrogenase (Flag-6PGD) (enzyme, UniProt P52209 1-483)
chain: MAQADIALIGLAVMGQNLILNMNDHGFVVCAFNRTVSKVDDFLANEAKGTKVVGAQSLKEMVSKLKKPRRIILLVKAGQAVDDFIEKLVPLLDTGDIIIDGGNSEYRDTTRRCRDLKAKGILFVGSGVSGGEEGARYGPSLMPGGNKEAWPHIKTIFQGIAAKVGTGEPCCDWVGDEGAGHFVKMVHNGIEYGDMQLICEAYHLMKDVLGMAQDEMAQAFEDWNKTELDSFLIEITANILKFQDTDGKHLLPKIRDSAGQKGTGKWTAISALEYGVPVTLIGEAVFARCLSSLKDERIQASKKLKGPQKFQFDGDKKSFLEDIRKALYASKIISYAQGFMLLRQAATEFGWTLNYGGIALMWRGGCIIRSVFLGKIKDAFDRNPELQNLLLDDFFKSAVENCQDSWRRAVSTGVQAGIPMPCFTTALSFYDGYRHEMLPASLIQAQRDYFGAHTYELLAKPGQFIHTNWTGHGGTVSSSSYNA
How did the binding [2] turn out when B1 was run?
The binding was “binds”.

And the binding [3]?
The binding was “binds”.
